Measurements as given in PMC7617797, “The phosphorylated trimeric SOSS1 complex and RNA polymerase II trigger liquid-liquid phase separation at double-strand breaks”.
These are yes or no findings as the source states them, for the method shown. Binding seen in cells or lysates may run through a third protein. Some results given as binding are weak or reduced against the parent protein; the word gives no strength.

The chains behind the UniProt entries cited, without tags or fusion partners. Where a name states a change or a piece, a line headed by the entry shows the natural chain unless it says otherwise. A line that says so, or that is headed by a name, gives the form on record, which may keep a tag or linker.
UniProt Q9BQ15: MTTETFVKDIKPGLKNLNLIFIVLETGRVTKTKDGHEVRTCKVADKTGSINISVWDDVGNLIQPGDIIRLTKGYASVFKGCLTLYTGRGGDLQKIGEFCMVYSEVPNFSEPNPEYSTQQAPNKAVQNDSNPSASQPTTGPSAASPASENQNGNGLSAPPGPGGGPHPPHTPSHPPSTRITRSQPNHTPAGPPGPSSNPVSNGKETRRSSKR
phosphorylated c-Abl (p-c-Abl) (P00519-2, form named): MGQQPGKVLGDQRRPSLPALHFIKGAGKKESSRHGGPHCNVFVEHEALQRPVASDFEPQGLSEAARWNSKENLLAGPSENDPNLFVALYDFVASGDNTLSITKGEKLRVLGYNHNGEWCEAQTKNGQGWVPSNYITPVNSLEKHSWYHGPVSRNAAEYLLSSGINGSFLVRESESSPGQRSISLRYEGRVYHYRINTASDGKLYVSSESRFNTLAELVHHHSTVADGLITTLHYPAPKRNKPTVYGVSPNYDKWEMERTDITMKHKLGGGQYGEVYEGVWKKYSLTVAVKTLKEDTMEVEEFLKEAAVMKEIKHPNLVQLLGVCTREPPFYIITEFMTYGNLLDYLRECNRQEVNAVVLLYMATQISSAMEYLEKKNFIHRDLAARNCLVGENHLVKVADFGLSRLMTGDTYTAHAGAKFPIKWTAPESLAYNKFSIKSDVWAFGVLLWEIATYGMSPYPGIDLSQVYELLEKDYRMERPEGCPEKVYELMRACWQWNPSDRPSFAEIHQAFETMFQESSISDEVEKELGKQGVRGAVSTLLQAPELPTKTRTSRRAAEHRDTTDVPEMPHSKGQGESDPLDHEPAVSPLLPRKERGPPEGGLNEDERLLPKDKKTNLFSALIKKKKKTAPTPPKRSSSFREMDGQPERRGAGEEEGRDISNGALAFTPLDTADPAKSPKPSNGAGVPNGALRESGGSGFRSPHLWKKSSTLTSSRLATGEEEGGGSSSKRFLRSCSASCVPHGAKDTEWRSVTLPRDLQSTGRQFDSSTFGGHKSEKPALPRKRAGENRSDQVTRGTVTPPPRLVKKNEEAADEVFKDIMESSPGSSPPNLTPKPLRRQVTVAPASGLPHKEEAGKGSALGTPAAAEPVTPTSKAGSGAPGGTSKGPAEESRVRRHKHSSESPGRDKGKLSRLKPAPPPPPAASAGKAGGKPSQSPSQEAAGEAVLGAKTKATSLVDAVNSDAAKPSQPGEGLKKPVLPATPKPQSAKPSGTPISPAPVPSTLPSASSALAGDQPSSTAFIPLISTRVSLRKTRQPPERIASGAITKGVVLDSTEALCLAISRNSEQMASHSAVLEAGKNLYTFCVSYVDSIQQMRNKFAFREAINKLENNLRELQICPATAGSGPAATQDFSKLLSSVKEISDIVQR

Target: human SSB1 (hSSB1) (human (endogenous in HeLa)) (UniProt Q9BQ15)
Assay: proximity ligation; Duolink in situ PLA with antibodies to the two endogenous proteins in fixed, permeabilised HeLa cells; with or without IR (10 Gy), imatinib (1 μM) or RNase H1 overexpression; single antibodies as negative control

binding | Substance
binds | Abelson tyrosine kinase (c-Abl) (from UniProt P00519-2 1-1149) (enzyme)
binds | phosphorylated c-Abl (p-c-Abl) (from UniProt P00519-2 1-1149) (enzyme)
